This is an account of results in PMC5739762.

By UniProt entry, the sequences of proteins in these tests, tags left out.
UniProt Q00987: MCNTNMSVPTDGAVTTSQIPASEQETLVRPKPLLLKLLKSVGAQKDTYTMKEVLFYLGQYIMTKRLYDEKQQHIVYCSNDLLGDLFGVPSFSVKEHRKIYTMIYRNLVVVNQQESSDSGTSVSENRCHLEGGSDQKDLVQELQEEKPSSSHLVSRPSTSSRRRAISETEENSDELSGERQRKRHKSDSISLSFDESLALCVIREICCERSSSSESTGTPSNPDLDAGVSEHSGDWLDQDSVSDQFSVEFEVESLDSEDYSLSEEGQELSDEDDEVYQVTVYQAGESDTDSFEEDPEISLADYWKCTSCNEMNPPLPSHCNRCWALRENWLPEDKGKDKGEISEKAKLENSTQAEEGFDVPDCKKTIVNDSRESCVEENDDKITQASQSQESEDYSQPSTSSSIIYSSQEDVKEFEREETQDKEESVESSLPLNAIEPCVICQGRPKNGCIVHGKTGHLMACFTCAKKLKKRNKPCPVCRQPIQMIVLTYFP
UniProt Q06187: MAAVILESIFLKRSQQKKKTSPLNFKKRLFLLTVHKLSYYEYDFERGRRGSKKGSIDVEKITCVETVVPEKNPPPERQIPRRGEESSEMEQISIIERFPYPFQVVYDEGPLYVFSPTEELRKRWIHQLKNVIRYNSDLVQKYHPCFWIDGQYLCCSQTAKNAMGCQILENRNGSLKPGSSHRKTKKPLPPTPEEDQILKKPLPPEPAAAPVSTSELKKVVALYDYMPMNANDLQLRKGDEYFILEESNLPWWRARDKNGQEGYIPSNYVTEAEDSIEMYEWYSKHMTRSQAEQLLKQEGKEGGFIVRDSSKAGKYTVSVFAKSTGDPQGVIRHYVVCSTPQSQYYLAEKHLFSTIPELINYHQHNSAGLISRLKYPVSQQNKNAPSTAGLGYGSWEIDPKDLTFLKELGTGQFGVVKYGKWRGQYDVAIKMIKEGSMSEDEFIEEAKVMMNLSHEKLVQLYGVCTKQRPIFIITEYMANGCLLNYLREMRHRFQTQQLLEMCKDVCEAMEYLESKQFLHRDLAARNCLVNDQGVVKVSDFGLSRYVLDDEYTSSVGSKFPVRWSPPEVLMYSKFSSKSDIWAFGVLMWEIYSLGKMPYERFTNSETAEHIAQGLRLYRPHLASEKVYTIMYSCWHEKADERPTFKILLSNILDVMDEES

These are yes or no findings as the source states them, for the method shown. Binding seen in cells or lysates may run through a third protein. Some entries that bind do so weakly or less than the wild type.

This experiment addresses FLAG-tagged MDM2 (UniProt Q00987). The experiment can be described thus: co-IP; lysates of HCT116 transfected with BTK and FLAG-MDM2; lysis buffer PBS, 50 mM NaCl, 1% NP-40, 1 mM PMSF, 4°C; IP with anti-FLAG or IgG overnight, protein A/G agarose; blots with BTK and FLAG antibodies.

As for “Bruton's Tyrosine Kinase (BTK) (from UniProt Q06187 1-659) (enzyme)”, the binding result is reported as “binds”.
